The list shows a part of the results.

By UniProt entry, the sequences of proteins in these tests, tags left out. Where a name states a change or a piece, a line headed by the entry shows the natural chain unless it says otherwise.
UniProt Q8WTV0: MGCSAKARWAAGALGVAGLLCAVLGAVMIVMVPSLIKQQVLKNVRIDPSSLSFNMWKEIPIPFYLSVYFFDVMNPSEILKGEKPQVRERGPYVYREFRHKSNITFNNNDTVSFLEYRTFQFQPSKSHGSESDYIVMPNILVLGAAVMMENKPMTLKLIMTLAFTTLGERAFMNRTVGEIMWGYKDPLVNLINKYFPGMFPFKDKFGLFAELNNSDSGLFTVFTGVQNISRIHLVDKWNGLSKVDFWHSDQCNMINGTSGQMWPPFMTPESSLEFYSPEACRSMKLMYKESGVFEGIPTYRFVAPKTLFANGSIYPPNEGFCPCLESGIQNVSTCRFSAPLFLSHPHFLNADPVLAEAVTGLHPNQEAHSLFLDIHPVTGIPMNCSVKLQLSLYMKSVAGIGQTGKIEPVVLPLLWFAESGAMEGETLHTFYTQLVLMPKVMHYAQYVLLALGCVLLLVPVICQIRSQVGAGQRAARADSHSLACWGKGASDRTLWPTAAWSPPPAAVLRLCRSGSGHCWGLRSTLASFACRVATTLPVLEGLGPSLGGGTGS
UniProt Q9Y6U3: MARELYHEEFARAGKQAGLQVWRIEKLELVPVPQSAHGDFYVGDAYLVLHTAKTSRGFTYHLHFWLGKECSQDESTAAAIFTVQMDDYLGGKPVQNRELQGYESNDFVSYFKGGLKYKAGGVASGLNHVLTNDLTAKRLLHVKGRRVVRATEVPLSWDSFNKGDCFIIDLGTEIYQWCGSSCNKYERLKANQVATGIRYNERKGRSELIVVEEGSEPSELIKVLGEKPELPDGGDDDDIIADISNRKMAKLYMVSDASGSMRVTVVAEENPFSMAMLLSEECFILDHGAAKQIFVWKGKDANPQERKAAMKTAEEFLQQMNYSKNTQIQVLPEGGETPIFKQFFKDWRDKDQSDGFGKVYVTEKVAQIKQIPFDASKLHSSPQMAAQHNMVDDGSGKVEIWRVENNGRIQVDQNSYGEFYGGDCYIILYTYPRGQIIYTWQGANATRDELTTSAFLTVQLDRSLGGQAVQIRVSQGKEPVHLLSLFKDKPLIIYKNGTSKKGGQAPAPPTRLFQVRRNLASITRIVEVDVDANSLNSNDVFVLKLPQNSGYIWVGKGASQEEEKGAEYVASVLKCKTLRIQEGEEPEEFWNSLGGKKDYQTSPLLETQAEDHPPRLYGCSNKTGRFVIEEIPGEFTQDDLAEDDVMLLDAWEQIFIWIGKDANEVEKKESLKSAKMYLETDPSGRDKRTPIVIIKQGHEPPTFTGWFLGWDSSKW
UniProt Q8N488: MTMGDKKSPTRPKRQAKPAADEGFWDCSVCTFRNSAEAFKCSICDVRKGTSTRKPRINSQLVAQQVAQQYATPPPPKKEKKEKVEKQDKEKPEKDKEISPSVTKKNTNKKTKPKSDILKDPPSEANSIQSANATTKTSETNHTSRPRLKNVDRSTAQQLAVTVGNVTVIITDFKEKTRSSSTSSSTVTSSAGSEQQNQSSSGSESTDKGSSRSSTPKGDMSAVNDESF
UniProt P31040: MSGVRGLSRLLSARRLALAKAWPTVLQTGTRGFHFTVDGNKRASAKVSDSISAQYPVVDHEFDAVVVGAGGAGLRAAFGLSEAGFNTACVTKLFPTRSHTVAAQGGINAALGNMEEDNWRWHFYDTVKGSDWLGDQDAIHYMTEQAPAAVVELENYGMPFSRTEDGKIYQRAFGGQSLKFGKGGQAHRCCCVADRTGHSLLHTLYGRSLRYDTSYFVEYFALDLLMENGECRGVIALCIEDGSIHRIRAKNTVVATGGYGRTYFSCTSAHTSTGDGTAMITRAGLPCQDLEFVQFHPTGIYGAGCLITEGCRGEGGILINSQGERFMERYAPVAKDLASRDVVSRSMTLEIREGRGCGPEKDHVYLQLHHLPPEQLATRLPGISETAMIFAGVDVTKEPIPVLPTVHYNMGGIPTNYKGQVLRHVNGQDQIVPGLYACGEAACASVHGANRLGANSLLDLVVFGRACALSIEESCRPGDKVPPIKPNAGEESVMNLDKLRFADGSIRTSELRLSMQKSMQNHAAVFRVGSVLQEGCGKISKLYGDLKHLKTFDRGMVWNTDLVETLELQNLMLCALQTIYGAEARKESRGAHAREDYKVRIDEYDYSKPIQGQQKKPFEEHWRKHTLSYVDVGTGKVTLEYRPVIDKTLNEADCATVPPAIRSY
UniProt Q9Y265, whole entry, looked up: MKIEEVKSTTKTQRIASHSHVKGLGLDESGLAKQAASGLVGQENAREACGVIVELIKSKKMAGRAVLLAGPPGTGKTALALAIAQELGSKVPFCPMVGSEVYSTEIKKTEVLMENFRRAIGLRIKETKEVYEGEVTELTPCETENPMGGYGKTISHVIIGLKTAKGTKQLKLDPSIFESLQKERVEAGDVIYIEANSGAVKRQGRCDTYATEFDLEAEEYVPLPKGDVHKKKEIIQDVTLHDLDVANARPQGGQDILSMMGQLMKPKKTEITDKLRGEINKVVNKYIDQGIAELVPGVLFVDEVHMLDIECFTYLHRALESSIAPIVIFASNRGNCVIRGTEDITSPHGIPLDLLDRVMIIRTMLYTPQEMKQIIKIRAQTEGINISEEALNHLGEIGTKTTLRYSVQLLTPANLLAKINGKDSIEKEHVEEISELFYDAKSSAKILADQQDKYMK
UniProt A3KN83: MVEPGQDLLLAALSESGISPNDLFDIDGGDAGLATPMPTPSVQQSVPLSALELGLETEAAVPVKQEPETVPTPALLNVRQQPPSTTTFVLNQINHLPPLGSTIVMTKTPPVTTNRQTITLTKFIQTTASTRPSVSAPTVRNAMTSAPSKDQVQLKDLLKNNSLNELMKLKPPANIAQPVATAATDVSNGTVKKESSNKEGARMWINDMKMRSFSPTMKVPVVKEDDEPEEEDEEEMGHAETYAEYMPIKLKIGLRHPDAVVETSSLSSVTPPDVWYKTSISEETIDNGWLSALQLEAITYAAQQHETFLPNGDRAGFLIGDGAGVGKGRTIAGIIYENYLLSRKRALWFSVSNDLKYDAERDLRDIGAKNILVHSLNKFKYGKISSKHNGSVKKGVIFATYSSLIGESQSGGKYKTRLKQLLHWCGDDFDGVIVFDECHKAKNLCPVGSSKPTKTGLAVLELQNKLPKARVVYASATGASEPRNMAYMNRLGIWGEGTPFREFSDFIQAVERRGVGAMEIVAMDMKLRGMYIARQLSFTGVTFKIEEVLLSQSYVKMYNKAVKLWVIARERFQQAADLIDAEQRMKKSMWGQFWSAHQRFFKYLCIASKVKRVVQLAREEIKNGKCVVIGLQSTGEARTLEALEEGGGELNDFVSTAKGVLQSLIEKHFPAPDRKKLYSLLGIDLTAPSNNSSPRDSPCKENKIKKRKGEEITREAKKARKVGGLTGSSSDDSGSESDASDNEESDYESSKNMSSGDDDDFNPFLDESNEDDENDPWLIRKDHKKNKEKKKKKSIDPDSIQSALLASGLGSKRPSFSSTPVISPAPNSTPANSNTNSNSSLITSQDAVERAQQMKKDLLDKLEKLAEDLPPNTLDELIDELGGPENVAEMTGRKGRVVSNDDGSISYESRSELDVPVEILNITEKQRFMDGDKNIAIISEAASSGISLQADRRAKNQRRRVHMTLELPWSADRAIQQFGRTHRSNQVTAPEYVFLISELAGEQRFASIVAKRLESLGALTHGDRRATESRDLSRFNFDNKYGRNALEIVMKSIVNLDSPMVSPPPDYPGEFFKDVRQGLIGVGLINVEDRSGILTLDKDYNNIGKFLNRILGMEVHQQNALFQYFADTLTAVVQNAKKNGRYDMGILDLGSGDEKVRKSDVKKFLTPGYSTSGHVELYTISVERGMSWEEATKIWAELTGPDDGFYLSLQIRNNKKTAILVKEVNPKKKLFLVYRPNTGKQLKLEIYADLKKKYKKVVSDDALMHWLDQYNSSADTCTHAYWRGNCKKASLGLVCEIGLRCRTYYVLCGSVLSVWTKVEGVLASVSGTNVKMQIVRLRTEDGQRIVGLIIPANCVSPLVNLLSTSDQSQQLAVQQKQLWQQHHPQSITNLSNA
UniProt P25815: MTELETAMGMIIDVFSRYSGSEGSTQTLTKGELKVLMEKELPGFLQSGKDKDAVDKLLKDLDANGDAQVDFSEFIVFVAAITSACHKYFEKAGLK
UniProt Q969E2: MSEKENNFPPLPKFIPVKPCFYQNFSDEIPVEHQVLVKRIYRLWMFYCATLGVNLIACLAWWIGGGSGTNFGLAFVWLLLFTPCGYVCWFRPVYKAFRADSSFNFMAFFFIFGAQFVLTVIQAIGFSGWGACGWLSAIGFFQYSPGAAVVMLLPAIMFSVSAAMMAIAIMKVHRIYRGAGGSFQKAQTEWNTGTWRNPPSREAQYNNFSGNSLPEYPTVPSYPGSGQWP
UniProt O94855: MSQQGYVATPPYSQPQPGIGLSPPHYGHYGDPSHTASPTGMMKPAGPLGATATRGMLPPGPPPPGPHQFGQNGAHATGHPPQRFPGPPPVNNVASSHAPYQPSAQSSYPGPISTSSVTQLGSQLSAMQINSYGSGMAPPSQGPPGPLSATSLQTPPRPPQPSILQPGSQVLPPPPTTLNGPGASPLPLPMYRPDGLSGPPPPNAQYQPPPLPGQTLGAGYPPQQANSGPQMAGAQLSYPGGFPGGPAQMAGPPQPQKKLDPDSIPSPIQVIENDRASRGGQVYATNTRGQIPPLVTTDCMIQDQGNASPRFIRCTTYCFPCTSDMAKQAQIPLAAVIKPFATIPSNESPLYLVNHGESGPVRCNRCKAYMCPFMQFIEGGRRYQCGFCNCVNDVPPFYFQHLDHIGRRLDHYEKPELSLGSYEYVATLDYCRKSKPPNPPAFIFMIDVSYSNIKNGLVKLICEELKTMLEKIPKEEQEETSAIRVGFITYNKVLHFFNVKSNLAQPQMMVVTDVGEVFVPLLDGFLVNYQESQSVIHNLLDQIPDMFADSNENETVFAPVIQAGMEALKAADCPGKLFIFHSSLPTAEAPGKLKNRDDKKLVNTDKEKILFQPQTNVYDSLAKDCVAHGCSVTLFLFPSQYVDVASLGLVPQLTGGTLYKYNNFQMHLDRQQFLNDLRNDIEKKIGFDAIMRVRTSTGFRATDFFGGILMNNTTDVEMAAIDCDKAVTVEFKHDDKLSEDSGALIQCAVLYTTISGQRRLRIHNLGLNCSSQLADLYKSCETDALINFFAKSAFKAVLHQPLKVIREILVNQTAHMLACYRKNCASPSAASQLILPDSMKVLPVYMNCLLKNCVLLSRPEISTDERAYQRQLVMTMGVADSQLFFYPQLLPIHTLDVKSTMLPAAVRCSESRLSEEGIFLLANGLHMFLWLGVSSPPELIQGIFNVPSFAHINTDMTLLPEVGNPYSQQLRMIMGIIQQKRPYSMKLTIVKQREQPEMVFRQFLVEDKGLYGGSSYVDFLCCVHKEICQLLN
UniProt Q9BW04: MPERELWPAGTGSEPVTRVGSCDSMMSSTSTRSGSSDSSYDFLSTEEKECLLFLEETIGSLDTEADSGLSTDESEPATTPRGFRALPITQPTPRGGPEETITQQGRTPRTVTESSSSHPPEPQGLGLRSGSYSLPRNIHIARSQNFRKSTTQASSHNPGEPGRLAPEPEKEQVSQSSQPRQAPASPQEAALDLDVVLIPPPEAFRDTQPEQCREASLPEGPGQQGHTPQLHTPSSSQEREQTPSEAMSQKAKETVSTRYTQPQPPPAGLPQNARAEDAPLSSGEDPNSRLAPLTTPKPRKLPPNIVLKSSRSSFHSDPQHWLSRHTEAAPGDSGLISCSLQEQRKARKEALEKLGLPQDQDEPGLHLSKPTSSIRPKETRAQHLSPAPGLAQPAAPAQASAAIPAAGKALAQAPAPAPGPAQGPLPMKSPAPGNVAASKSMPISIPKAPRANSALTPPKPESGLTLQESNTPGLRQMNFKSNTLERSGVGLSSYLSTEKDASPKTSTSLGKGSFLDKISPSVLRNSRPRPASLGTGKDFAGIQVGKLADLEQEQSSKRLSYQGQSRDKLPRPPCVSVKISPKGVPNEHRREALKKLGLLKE
UniProt P31949: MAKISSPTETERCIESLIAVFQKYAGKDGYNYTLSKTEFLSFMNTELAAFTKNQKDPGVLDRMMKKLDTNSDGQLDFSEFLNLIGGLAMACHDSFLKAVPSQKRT
UniProt Q9UHR5: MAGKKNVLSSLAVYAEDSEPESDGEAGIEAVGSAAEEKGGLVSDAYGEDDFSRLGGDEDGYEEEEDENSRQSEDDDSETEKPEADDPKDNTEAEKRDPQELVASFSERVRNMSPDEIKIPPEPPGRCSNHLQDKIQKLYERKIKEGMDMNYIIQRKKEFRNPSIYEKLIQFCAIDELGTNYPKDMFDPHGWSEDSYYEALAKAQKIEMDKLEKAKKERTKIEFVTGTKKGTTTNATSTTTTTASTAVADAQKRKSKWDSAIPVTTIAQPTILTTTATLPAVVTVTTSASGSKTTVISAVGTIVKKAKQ
UniProt Q9Y6B6: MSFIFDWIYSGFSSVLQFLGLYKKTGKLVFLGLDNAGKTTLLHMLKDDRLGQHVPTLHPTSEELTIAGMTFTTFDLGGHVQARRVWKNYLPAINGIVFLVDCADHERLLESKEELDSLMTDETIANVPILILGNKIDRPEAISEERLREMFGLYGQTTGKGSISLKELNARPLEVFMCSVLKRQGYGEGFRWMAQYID

Compound in one experiment: C[C@@H](Oc1cc(-c2cnn(C3CCNCC3)c2)cnc1N)c1c(Cl)ccc(F)c1Cl [crizotinib]
Put plainly: log2 fold change, soluble protein after heating vs DMSO (PISA); higher = thermal stabilisation; K562 cells, 10 uM, 30 min; active = over 0.2 and 3.5 SD of the protein, either way, in both replicates (recomputed). The essentials:
(§1)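 K562 cells at 2×10^6 cells/mL were exposed to 10 μM compound for 30 min, then aliquots were heated for 3 min across 48°C-58°C, pooled, and extracted in PBS containing 0.5% NP-40 at 4°C. The supernatant after 21,000xg for 90 min was taken as soluble protein and measured by TMTpro 16plex LC-MS/MS with channel sums equalised. Thermal stability is reported relative to control samples, with values from duplicates. Fold changes are given on a log2 scale.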
Turning to SCFD2 (UniProt Q8WU76), the log2 fold change is inactive: -0.103.

Turning to SCARB1 isoform 2 (UniProt Q8WTV0), the log2 fold change was inactive: -0.012.

Turning to RWDD1 (UniProt Q9H446), the log2 fold change is inactive: 0.084.

As for SCIN (UniProt Q9Y6U3), the log2 fold change is inactive: -0.066.

For SDF4 (UniProt Q9BRK5), the log2 fold change is inactive: 0.126.

RYBP (UniProt Q8N488): the log2 fold change is inactive: 0.077.

In the case of SCO1 (UniProt O75880), the log2 fold change was inactive: -0.113.

In the case of SACS (UniProt Q9NZJ4), the log2 fold change is inactive: 0.037.

For the target RTRAF (UniProt Q9Y224), the log2 fold change was inactive: 0.04.

With SCYL1 (UniProt Q96KG9), the log2 fold change is inactive: -0.028.

As for S100A6 (UniProt P06703), the log2 fold change was inactive: 0.156.

As for SDHA (UniProt P31040), the log2 fold change was inactive: 0.021.

Turning to RSBN1L (UniProt Q6PCB5), the log2 fold change was inactive: -0.047.

With RUVBL1 (UniProt Q9Y265), the log2 fold change is inactive: 0.114.

As to SDHAF3 (UniProt Q9NRP4), the log2 fold change was inactive: -0.052.

With SBNO1 (UniProt A3KN83), the log2 fold change is inactive: 0.021.

Take SCLY (UniProt Q96I15): the log2 fold change was inactive: -0.006.

In the case of S100P (UniProt P25815), the log2 fold change was inactive: 0.096.

Consider SCP2 (UniProt P22307), for which the log2 fold change was inactive: 0.046.

Consider SCAMP4 (UniProt Q969E2), for which the log2 fold change was inactive: 0.046.

Turning to SCARB2 (UniProt Q14108), the log2 fold change was inactive: -0.078.

As for SCAP (UniProt Q12770), the log2 fold change is inactive: 0.045.

As for SEC24D isoform 2 (UniProt O94855), the log2 fold change is inactive: 0.001.

On to RRP15 (UniProt Q9Y3B9), for which the log2 fold change is inactive: 0.085.

As for SBF1 isoform 4 (UniProt O95248), the log2 fold change is inactive: -0.159.

Turning to SARG (UniProt Q9BW04), the log2 fold change is inactive: 0.006.

As to SAR1A (UniProt Q9NR31), the log2 fold change was inactive: 0.012.

For S100A11 (UniProt P31949), the log2 fold change was inactive: 0.191.

SAP30BP (UniProt Q9UHR5): the log2 fold change is inactive: 0.047.

Regarding SAR1B (UniProt Q9Y6B6), the log2 fold change is inactive: 0.053.

Compound in a further experiment: C[C@@H]1COCCN1C2=NC(=NC(=C2)C3(CC3)S(=O)(=O)C)C4=C5C=CNC5=CC=C4
The description is as above. The essentials:
as §1
Consider SCFD2 (UniProt Q8WU76), for which the log2 fold change is inactive: 0.111.

For the target SCARB1 isoform 2 (UniProt Q8WTV0), the log2 fold change was inactive: 0.046.

For RWDD1 (UniProt Q9H446), the log2 fold change is inactive: 0.03.

Take SCIN (UniProt Q9Y6U3): the log2 fold change was inactive: -0.003.

As for SDF4 (UniProt Q9BRK5), the log2 fold change was inactive: 0.108.

RYBP (UniProt Q8N488): the log2 fold change was inactive: -0.026.

SCO1 (UniProt O75880): the log2 fold change was inactive: 0.068.

Take SACS (UniProt Q9NZJ4): the log2 fold change was inactive: 0.185.

On to RTRAF (UniProt Q9Y224), for which the log2 fold change was inactive: -0.115.

As to SCYL1 (UniProt Q96KG9), the log2 fold change was inactive: 0.036.

Take S100A6 (UniProt P06703): the log2 fold change is inactive: 0.132.

For the target SDHA (UniProt P31040), the log2 fold change was inactive: -0.003.

RSBN1L (UniProt Q6PCB5): the log2 fold change is inactive: -0.396.

Regarding RUVBL1 (UniProt Q9Y265), the log2 fold change was inactive: -0.02.

Regarding SDHAF3 (UniProt Q9NRP4), the log2 fold change was inactive: 0.031.

Consider SBNO1 (UniProt A3KN83), for which the log2 fold change was inactive: 0.039.

Turning to SCLY (UniProt Q96I15), the log2 fold change was inactive: 0.034.

S100P (UniProt P25815): the log2 fold change was inactive: 0.059.

For SCP2 (UniProt P22307), the log2 fold change was inactive: 0.047.

Take SCAMP4 (UniProt Q969E2): the log2 fold change was inactive: 0.102.

For SCARB2 (UniProt Q14108), the log2 fold change is inactive: -0.035.

With SCAP (UniProt Q12770), the log2 fold change is inactive: 0.049.

For SEC24D isoform 2 (UniProt O94855), the log2 fold change was inactive: 0.06.

As to RRP15 (UniProt Q9Y3B9), the log2 fold change is inactive: -0.001.

Take SBF1 isoform 4 (UniProt O95248): the log2 fold change was inactive: -0.131.

Regarding SARG (UniProt Q9BW04), the log2 fold change was inactive: 0.041.

Turning to SAR1A (UniProt Q9NR31), the log2 fold change is inactive: -0.023.

In the case of S100A11 (UniProt P31949), the log2 fold change was inactive: 0.089.

With SAP30BP (UniProt Q9UHR5), the log2 fold change was inactive: 0.042.

For the target SAR1B (UniProt Q9Y6B6), the log2 fold change is inactive: 0.166.

Values taken from the supplement of paper PMC10849652.
